No constants are given. Whether binding was seen depends on the method and setting. Binding seen in cells or lysates may run through a third protein. These calls come from enrichment with a bait or labelling near it, and not all partners need be listed.
B1: KIF2C (protein, UniProt Q99661 1-725)
chain: MAMDSSLQARLFPGLAIKIQRSNGLIHSANVRTVNLEKSCVSVEWAEGGATKGKEIDFDDVAAINPELLQLLPLHPKDNLPLQENVTIQKQKRRSVNSKIPAPKESLRSRSTRMSTVSELRITAQENDMEVELPAAANSRKQFSVPPAPTRPSCPAVAEIPLRMVSEEMEEQVHSIRGSSSANPVNSVRRKSCLVKEVEKMKNKREEKKAQNSEMRMKRAQEYDSSFPNWEFARMIKEFRATLECHPLTMTDPIEEHRICVCVRKRPLNKQELAKKEIDVISIPSKCLLLVHEPKLKVDLTKYLENQAFCFDFAFDETASNEVVYRFTARPLVQTIFEGGKATCFAYGQTGSGKTHTMGGDLSGKAQNASKGIYAMASRDVFLLKNQPCYRKLGLEVYVTFFEIYNGKLFDLLNKKAKLRVLEDGKQQVQVVGLQEHLVNSADDVIKMIDMGSACRTSGQTFANSNSSRSHACFQIILRAKGRMHGKFSLVDLAGNERGADTSSADRQTRMEGAEINKSLLALKECIRALGQNKAHTPFRESKLTQVLRDSFIGENSRTCMIATISPGISSCEYTLNTLRYADRVKELSPHSGPSGEQLIQMETEEMEACSNGALIPGNLSKEEEELSSQMSSFNEAMTQIRELEEKAMEELKEIIQQGPDWLELSEMTEQPDYDLETFVNKAESALAQQAKHFSALRDVIKALRLAMQLEEQASRQISSKKRPQ

Amino acid sequences for entries named in this document (tags omitted).
UniProt P11142: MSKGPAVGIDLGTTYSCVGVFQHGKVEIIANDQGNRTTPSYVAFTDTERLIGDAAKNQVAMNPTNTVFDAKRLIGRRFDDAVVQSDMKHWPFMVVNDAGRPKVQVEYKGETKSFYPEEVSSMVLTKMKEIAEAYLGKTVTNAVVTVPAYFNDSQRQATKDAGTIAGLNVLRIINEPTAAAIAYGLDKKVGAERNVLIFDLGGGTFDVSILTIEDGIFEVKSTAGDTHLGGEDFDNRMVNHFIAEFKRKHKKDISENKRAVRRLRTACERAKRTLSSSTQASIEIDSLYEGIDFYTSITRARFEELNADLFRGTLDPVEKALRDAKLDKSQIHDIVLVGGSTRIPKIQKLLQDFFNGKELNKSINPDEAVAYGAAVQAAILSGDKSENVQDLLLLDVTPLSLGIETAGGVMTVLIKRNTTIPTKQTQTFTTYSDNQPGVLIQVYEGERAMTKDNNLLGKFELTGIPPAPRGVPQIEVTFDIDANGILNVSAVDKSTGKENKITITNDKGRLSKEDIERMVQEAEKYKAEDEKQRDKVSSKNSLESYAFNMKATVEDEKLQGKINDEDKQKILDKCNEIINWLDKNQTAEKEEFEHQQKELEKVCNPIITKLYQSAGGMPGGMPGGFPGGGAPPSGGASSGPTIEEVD
UniProt O43684: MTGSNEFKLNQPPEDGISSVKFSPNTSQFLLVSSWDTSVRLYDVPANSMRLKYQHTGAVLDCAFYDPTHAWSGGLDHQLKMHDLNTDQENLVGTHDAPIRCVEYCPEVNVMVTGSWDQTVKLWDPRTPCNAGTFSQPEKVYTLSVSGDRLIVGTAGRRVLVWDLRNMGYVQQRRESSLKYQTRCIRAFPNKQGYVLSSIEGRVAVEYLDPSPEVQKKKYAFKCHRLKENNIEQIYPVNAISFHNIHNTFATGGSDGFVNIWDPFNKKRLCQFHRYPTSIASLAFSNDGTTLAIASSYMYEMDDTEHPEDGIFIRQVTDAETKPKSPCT
UniProt P52732: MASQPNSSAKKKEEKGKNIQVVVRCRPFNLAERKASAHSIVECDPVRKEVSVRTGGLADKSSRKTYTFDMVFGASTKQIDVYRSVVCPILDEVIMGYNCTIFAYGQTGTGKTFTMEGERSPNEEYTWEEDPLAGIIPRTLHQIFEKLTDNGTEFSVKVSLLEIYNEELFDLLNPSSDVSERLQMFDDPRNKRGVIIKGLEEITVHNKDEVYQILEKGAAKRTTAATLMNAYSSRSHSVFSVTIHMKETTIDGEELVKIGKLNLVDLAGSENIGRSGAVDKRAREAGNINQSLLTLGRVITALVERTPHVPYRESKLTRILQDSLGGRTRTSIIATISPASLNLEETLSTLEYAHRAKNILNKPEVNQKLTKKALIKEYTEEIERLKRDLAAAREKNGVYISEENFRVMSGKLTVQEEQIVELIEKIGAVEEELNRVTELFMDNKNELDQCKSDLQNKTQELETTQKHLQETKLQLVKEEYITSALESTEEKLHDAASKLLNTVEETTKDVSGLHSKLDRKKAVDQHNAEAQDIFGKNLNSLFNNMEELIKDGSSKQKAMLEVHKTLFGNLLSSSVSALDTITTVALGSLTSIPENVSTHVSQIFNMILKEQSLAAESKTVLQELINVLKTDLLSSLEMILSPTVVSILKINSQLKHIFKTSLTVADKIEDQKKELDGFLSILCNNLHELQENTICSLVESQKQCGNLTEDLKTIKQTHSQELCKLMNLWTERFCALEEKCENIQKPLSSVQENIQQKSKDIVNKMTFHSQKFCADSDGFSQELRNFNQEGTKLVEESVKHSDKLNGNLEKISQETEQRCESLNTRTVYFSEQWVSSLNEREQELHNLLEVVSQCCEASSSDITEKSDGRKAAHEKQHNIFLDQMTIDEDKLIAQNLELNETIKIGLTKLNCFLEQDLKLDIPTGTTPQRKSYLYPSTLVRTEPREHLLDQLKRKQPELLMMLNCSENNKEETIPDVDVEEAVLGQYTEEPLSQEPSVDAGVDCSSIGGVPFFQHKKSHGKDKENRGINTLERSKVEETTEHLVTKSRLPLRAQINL
UniProt Q15021: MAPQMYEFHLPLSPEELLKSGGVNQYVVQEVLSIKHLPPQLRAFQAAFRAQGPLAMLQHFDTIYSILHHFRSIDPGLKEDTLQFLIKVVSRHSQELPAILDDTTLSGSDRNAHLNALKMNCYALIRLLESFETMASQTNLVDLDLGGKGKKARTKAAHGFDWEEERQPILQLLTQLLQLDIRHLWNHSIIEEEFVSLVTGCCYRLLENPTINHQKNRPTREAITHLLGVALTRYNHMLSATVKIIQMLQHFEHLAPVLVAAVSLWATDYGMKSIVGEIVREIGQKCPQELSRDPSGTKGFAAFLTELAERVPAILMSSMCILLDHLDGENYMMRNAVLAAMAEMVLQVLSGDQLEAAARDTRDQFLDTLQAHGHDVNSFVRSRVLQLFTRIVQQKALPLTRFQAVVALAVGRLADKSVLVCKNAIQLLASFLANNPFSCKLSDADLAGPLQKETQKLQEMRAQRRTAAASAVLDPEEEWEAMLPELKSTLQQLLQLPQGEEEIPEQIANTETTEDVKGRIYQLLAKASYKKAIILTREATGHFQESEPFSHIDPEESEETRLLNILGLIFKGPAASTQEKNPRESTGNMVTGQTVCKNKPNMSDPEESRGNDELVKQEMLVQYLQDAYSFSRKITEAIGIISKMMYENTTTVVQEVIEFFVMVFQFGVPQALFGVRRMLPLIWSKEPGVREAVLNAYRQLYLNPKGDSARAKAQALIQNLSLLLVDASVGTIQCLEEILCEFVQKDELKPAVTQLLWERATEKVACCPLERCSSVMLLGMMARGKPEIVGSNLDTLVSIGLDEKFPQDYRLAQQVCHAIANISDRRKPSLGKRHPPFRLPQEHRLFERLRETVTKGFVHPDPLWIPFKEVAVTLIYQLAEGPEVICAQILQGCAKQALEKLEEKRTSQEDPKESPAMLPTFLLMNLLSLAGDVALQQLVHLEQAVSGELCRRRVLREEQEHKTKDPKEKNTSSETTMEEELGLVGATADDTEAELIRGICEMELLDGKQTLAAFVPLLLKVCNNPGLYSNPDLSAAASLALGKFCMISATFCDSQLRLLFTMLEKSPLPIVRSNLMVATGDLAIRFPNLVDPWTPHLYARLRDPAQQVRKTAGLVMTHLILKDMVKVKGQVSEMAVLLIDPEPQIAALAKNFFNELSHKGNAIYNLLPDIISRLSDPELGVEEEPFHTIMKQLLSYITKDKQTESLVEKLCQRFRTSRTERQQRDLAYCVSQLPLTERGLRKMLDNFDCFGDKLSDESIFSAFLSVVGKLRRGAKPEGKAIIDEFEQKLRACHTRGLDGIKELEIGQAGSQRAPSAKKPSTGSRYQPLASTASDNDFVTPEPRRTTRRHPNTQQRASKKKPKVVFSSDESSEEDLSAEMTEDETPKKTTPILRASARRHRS
UniProt Q14980: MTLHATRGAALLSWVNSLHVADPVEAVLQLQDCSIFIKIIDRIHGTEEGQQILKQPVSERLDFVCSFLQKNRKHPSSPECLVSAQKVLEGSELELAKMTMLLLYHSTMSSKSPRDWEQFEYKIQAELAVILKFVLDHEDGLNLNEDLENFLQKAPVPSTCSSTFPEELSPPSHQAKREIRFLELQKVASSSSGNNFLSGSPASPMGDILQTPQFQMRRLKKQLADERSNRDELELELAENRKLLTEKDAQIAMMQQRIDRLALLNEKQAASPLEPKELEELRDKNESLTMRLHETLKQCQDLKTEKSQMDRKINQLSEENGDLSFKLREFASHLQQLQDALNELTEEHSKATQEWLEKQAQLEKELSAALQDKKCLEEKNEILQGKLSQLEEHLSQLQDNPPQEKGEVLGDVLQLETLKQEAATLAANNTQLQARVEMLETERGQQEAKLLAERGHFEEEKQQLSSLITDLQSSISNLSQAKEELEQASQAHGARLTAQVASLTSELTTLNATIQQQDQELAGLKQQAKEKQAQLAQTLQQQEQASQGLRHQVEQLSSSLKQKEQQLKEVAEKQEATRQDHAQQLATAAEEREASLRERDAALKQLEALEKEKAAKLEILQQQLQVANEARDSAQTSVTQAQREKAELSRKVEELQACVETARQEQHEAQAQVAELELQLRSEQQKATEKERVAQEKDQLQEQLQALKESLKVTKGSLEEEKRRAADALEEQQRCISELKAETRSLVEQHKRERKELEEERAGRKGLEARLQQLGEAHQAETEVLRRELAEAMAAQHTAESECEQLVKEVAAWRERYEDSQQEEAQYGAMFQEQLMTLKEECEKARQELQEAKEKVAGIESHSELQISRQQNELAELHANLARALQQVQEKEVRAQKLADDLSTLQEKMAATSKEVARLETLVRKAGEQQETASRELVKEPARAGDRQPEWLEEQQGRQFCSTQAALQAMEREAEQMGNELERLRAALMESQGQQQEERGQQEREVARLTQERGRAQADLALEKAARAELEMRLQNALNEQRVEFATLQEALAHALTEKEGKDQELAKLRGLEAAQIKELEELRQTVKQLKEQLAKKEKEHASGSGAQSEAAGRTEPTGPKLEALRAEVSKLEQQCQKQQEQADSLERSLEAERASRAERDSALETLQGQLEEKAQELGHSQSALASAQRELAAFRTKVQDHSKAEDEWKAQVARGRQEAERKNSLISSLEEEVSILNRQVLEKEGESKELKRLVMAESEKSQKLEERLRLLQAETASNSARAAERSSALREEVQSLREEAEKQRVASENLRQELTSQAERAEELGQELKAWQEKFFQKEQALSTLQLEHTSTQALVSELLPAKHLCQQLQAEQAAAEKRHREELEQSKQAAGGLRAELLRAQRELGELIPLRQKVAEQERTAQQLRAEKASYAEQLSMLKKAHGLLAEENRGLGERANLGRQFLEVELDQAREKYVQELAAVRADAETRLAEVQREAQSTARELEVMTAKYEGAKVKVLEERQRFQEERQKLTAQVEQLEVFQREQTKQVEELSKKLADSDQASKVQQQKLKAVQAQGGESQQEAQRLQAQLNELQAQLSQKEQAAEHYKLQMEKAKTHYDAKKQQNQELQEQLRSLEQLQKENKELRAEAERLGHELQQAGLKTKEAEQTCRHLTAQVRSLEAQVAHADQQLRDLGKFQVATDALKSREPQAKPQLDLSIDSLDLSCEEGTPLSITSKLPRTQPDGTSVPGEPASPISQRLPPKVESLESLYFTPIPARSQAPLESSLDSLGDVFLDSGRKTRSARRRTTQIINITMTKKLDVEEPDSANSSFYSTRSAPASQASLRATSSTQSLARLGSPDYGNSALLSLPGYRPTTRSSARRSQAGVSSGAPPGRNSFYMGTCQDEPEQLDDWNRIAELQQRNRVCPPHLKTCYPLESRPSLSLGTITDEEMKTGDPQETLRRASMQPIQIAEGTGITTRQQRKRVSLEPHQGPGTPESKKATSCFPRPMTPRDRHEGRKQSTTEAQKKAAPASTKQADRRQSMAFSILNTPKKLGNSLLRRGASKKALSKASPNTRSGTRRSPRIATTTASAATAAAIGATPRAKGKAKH
UniProt Q9ULW0: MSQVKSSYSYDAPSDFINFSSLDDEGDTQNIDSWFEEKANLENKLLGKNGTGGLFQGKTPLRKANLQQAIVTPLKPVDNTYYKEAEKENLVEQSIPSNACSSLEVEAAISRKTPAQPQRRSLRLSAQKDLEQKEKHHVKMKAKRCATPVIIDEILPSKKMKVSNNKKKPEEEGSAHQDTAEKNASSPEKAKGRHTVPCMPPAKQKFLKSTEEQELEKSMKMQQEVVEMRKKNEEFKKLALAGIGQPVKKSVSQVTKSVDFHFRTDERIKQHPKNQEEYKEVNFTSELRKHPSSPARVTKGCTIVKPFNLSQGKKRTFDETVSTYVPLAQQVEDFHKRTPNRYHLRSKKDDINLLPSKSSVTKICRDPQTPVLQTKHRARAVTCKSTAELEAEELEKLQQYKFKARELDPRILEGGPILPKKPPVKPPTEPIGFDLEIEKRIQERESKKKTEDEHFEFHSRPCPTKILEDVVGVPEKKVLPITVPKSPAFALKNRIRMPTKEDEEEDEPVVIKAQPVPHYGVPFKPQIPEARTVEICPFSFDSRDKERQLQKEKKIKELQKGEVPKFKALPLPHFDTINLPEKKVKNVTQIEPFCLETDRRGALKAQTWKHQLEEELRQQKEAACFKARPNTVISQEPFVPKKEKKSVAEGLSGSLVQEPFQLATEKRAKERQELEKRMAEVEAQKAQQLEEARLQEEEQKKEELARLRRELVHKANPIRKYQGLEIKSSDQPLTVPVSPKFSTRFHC

Target: heat shock cognate 70 (HSC70) (human (endogenous in MDA-MB-468)) (UniProt P11142)
Assay: affinity purification with mass spectrometry; YK5-B epichaperomics in MDA-MB-468: probe (25-75 µM, 4 h) added to live cells then streptavidin beads, or YK5-B beads added to 500 µg lysate overnight; SDS-PAGE, in-gel digestion, label-free LC-MS/MS; control bait; grades A-C by p-value

binding, binds:
BUB3 (from UniProt O43684 1-328), signal transducer and activator of transcription 3 (STAT3) (from UniProt P40763 1-770), KIF11 also called Eg5 (from UniProt P52732 1-1056), Polo Like Kinase 1 (PLK1) (from UniProt P53350 1-603), NCAPD2 (from UniProt Q15021 1-1401), Nuclear Mitotic Apparatus Protein 1 (NUMA1 or NuMA) (from UniProt Q14980 1-2115), Aurora kinase A (AURKA) (from UniProt O14965 1-403), TPX2 microtubule nucleation factor (from UniProt Q9ULW0 1-747)

Target: heat shock cognate 70 (HSC70) (human (endogenous in MDA-MB-468)) (UniProt P11142)
Assay: as above
Remark: another data set of the same source

binding, binds:
B1
